Molecules are shown by their SMILES. The list shows a part of the results. The data scatter; read single values as rough.

The chains behind the UniProt entries cited, without tags or fusion partners. Where a name states a change or a piece, a line headed by the entry shows the natural chain unless it says otherwise.
UniProt Q9UKX7: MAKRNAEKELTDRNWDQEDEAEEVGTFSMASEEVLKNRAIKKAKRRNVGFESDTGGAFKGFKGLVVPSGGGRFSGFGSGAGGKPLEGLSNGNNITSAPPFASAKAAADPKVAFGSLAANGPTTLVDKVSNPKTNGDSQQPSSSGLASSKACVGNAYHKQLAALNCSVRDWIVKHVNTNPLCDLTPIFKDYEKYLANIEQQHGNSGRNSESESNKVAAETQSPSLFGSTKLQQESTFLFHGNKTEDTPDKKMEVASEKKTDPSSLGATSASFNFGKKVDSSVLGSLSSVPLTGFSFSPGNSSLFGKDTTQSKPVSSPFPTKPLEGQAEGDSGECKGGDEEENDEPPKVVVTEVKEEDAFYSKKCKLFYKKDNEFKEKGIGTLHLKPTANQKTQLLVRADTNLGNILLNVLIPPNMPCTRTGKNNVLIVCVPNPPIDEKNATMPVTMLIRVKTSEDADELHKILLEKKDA

In one experiment the target is T1, NUP50 C333 (UniProt Q9UKX7).
T1 sequence (whole entry): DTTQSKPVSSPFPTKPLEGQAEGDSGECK
As to the kind of experiment: log2 mean competition ratio of IA-DTB cysteine labelling (DMSO/compound) (log2 ratio); higher = stronger cysteine engagement by compound. The following applies: 50 µM; treatment time: 4 h; cell line lysate: HEK293T. As to the method: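 IA-DTB competitive cysteine chemoproteomics in HEK293T RIPA lysate. Lysates were treated with compound 29 or 30 at 50 or 200 µM for 4 h, then IA-DTB (500 µM, 1 h), trypsin-digested, NeutrAvidin-enriched and analysed by diaPASEF. Competition ratio = intensity DMSO / intensity compound (n=4 treated, n=64 DMSO); binding: mean log2 CR ≥ 1 and p ≤ 0.05 plus QC filters. Target is the cysteine site.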
Turning to `O=C(CCl)N[C@@H]1CCCc2ccccc21`, the “log2 mean competition ratio” value amounted to 0.0522.

As to `O=C(CCl)N[C@H]1CCCc2ccccc21`, the “log2 mean competition ratio” value turned out to be 0.672.

The experiment is the same for the next values; noted with them: 200 µM; treatment time: 4 h; cell line lysate: HEK293T.
For `O=C(CCl)N[C@@H]1CCCc2ccccc21`, the “log2 mean competition ratio” value was -0.107.

With `O=C(CCl)N[C@H]1CCCc2ccccc21`, the “log2 mean competition ratio” value is -0.0029.

The record behind these values is the supplement of paper PMC11732987, “Enantioselective OTUD7B fragment discovery through chemoproteomics screening and high-throughput optimisation” (Communications Chemistry, 2025).
